Test results from PubChem BioAssay AID2284358 (EPA ToxCast).
The inconclusive results got no clear call from the source; some entries with a clear call stand among them for comparison. Potencies of inconclusive entries are doubtful fits and often do not repeat. The source made the active and inactive calls. The calls were made as follows: active = hit-call score of the fitted dose curve at least 0.9, where 1 is the maximum; inconclusive = response in the unintended direction; inactive = score below 0.9.

Amino acid sequences for entries named in this document (tags omitted). A change or cut given only in a name is not applied to a line headed by its entry.
UniProt Q7SYN5: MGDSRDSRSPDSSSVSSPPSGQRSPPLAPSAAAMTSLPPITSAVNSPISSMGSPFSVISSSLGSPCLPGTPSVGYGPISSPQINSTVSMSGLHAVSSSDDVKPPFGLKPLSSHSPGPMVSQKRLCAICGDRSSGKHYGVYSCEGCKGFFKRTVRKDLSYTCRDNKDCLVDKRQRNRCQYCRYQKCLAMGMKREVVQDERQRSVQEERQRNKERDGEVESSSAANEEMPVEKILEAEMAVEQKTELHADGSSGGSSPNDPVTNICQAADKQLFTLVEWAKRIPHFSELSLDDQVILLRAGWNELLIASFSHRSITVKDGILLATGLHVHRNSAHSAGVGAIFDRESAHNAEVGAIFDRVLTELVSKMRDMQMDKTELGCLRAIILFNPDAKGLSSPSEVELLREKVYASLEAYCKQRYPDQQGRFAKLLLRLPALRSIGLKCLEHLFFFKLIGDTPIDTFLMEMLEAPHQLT

Target: zebrafish Retinoid X Receptor beta (RXRb), rxrba (gene 30530) (UniProt Q7SYN5)
Test: ATG_zfRXRb_EcoTox2: Attagene TRANS-FACTORIAL EcoTox-2 HepG2 Assay for zebrafish Retinoid X Receptor beta (RXRb)
Experimental: ATG_EcoTox2 is a cell-based, multiplexed assay created by modifying the existing Attagene TRANS-FACTORIAL system to include a panel of nuclear receptors from some or all the following species: human (Homo sapiens), african clawed frog (Xenopus laevis), rainbow trout (Oncorhynchus mykiss), japanese medaka (Oryzias latipes), and zebrafish (Danio rerio). The ECOTOX2-FACTORIAL format uses HepG2, a human liver cell line, with measurements taken at 24 hours after chemical dosing in a 24-well plate. ATG_zfRXRb_EcoTox2 is one of 29 assay components calculated in the ATG_EcoTox2 assay. It is designed to make measurements of mRNA induction, a form of inducible reporter, as detected with fluorescence intensity signals by Reverse transcription polymerase chain reaction (RT-PCR) and Capillary electrophoresis technology.The assay endpoint ATG_zfRXRb_EcoTox2 was analyzed in the positive analysis fitting direction relative to DMSO as the negative control and baseline of activity. Using a type of inducible reporter, measures of mRNA for gain-of-signal activity can be used to understand the reporter gene at the transcription factor-level as they relate to the gene RXRb. Furthermore, this assay endpoint can be referred to as a primary readout, because this assay has produced multiple assay endpoints where this one serves a reporter gene function. To generalize the intended target to other relatable targets, this assay endpoint is annotated to the nuclear receptor intended target family, where the subfamily is non-steroidal.
Human liver HepG2 cells are transiently transfected with multiple reporter transcription units (MRTUs) in 6-well plates using FuGene 6 reagent (Roche; 3 ml FuGene/1 mg DNA). The MRTU constructs are regulated by a cis-regulating element (promoter). Each RTU expresses a GAL4-UAS that regulates the transcription of a nearby target reporter gene sequence. A major difference between the CIS and TRANS system is that in CIS activities of endogenous TFs are measured, whereas the TRANS assay evaluates changes in activities of exogenous, chimeric NR-Gal4 proteins. […] At the end of 24 hour incubation, total RNA was isolated using TriZol reagent (Invitrogen). The isolated RNA is then reverse-transcribed using oligo(dT) primer and Mo-MLV reverse transcriptase (Invitrogen) with DNAse I (Ambion) treatment for 30 min. The one-tenth of the produced cDNA was amplified by PCR using Taq DNA polymerase (Invitrogen) and two reporter sequence-specific primers. The PCR products were fluorescently labeled by primer extension with 6-arboxyfluorescein (6-FAM) 5'-labeled reporter sequence-specific primer (2 min at 95 C, 20 s at 68 C and 10 min at 72 C) and these products were digested with 5U of HpaI (New England Biolabs) for 2h at 37 C. The fragments were purified using Qiaquick PCR columns (Qiagen), analyzed on an ABI 3130xL genetic analyzer (Applied Biosystems) with peak positions identified by using a set of X-rhodamine (ROX)-labeled MapMarker1000 molecular weight standards (BioVentures). The raw capillary electrophoresis data was processed using Attagraph software (Attagene).

| SMILES | AC50 | outcome |
| --- | --- | --- |
| C=C(c1ccc(C(=O)O)cc1)c1cc2c(cc1C)C(C)(C)CCC2(C)C | active: 0.597 µM |  |
| C[C@]12C=CC(=O)C=C1CC[C@@H]1[C@@H]2C(=O)C[C@@]2(C)[C@H]1CC[C@]2(O)C(=O)CO |  | inactive |
| Cc1nc(-c2ccc(C(F)(F)F)cc2)sc1C(=O)NCc1ccc(OC(C)(C)C(=O)O)cc1 | inconclusive: 100 µM |  |
| CN(CCOc1ccc(CC2SC(=O)NC2=O)cc1)c1ccccn1 (stereo not given) | inconclusive: 0.157 µM |  |
| CC(C)OC(=O)C(C)(C)Oc1ccc(C(=O)c2ccc(Cl)cc2)cc1 | inconclusive: 50 µM |  |
